# Data published in article PMC12216599.
# These are yes or no findings as the source states them, for the method shown. Binding seen in cells or lysates may run through a third protein. A result given as binding can be weak or reduced; the word gives no strength. Where a sequence is shown, tags or fusion partners need not be part of it.
# B1: GST-RGB1 (protein, UniProt Q40687 1-380)
# chain: MASVAELKEKHAAATASVNSLRERLRQRRQMLLDTDVERYSRTQGRTPVSFNPTDLVCCRTLQGHSGKVYSLDWTPEKNWIVSASQDGRLIVWNALTSQKTHAIKLHCPWVMTCAFAPNGQSVACGGLDSACSIFNLNSQADRDGNIPVSRILTGHKGYVSSCQYVPDQETRLITSSGDQTCVLWDVTTGQRISIFGGEFPSGHTADVLSLSINSSNSNMFVSGSCDATVRLWDIRIASRAVRTYHGHEGDINSVKFFPDGQRFGTGSDDGTCRLFDVRTGHQLQVYSREPDRNDNELPTVTSIAFSISGRLLFAGYSNGDCYVWDTLLAEVVLNLGNLQNSHEGRISCLGLSSDGSALCTGSWDKNLKIWAFSGHRKIV
# B2: RGB1-nLUC (protein, UniProt Q40687 1-380)
# chain: B1 chain
# Assays:
# [1] = molecular target: MBP-GS3 (rice (variety ZH11)); assay: pull-down; MBP-GS3 treated with DTT, H2O or H2O2, then incubated with equal amounts of GST-RGB1 and MBP beads; immunoblot with anti-GST and anti-MBP
# [2] = molecular target: cLUC-GS3 (rice (variety ZH11)); assay: split reporter; firefly luciferase complementation imaging (LCI) in N. benthamiana leaves, 36-48 h after infiltration; for RGB1-nLUC/cLUC-GS3 co-expressed with MYC, MYC-WG1 or MYC-WG1^C46,49S
Binder,binding [1],binding [2]
B1,binds,–
B2,–,binds
